Measurements reported in PMC9202185.
Results are given in words; binding and its absence hold for the method and conditions named. In cells and extracts the contact can be indirect. Binding calls can cover weak binding; strength is not graded here.

Target: T1, Calcium-dependent cytosolic phospholipase A2 (mouse (endogenous in immortalized mouse astrocytes)) (UniProt P47713)
T1 sequence: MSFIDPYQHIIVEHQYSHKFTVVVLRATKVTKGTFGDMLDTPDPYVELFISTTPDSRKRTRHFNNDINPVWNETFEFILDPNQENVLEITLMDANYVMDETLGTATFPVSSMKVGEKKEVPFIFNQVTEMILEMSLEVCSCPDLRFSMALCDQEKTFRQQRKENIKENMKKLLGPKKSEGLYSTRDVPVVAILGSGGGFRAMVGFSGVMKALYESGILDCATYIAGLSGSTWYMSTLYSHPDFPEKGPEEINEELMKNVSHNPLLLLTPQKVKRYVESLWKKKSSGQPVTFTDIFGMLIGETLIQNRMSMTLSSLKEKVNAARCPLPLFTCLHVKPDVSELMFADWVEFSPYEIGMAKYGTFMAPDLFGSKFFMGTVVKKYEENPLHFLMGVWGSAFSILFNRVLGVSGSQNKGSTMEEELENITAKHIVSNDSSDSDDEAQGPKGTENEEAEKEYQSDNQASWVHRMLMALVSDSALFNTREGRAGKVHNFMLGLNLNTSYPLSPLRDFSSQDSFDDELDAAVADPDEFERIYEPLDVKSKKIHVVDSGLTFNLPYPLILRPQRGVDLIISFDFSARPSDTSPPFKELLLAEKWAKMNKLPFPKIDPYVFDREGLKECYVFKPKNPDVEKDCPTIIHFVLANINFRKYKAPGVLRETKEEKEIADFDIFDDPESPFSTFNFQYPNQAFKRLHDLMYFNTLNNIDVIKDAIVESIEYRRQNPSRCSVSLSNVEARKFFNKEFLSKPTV
Test: co-IP; lysate (RIPA with protease and phosphatase inhibitors) of immortalized ApoE4 astrocytes; immunoprecipitation with anti-cPLA2 antibody or species-matched IgG; cPLA2 and p38 detected by Western blot

In the case of p38 MAPK (enzyme), the binding is reported as “binds”.
